The list shows a part of the results.

By UniProt entry, the sequences of proteins in these tests, tags left out. Where a name states a change or a piece, a line headed by the entry shows the natural chain unless it says otherwise.
UniProt Q16576, whole entry, looked up: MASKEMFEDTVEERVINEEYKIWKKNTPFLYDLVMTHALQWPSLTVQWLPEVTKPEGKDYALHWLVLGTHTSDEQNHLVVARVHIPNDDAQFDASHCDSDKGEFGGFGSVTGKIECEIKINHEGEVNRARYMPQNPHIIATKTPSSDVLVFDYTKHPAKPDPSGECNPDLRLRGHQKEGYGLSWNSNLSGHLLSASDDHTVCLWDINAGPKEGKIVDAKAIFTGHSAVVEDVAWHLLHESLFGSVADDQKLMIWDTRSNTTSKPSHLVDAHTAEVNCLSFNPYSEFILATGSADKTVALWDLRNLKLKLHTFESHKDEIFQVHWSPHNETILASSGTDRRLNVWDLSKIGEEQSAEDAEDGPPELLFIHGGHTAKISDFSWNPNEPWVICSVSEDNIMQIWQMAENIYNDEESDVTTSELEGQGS
UniProt Q96D70: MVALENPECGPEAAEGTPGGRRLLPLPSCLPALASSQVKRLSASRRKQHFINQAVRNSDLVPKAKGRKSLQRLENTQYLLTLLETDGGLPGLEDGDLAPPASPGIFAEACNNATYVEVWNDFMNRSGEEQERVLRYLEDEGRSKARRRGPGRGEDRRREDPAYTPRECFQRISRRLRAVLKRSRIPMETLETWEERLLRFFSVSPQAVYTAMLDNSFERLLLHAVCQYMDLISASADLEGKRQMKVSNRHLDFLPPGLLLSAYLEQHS
UniProt Q15291, whole entry, looked up: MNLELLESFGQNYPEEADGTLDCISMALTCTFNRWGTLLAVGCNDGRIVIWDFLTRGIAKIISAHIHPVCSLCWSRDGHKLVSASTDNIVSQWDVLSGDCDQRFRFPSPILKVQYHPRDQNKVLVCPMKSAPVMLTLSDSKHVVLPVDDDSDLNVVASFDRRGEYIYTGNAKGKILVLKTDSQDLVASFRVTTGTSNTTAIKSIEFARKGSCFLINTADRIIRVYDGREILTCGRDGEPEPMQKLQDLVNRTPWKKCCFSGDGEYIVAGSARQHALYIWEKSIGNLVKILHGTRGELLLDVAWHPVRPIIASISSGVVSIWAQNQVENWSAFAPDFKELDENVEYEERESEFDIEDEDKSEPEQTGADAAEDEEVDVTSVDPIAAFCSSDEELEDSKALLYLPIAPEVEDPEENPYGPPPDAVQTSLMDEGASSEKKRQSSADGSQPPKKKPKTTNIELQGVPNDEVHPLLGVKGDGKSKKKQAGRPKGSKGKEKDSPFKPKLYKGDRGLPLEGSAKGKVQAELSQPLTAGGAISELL
UniProt O15315: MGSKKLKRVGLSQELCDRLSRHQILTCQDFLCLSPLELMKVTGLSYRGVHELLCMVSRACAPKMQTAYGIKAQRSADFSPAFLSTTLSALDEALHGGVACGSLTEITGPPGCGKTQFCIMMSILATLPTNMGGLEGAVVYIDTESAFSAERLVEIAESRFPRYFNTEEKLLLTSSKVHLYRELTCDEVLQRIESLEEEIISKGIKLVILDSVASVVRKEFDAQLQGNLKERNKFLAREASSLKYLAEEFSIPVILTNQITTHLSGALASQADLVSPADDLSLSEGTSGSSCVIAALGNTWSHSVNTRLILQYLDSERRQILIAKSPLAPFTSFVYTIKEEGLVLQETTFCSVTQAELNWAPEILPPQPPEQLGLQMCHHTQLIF
UniProt Q15771: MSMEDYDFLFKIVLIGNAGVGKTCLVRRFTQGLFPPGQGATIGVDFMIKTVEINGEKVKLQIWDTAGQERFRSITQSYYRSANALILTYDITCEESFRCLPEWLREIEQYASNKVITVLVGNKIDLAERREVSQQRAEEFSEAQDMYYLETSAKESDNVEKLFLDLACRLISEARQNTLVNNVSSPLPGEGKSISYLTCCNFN
UniProt Q8TBN0: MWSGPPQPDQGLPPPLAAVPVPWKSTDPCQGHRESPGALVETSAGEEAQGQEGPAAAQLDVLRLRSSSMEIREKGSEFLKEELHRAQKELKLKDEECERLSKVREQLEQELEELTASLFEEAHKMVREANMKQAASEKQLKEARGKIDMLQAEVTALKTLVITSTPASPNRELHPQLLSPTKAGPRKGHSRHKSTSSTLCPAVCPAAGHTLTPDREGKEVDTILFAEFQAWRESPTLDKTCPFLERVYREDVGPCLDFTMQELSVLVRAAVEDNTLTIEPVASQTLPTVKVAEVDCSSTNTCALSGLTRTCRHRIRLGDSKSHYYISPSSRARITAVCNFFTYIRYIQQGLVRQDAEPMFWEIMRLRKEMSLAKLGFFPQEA
UniProt Q9Y3L5: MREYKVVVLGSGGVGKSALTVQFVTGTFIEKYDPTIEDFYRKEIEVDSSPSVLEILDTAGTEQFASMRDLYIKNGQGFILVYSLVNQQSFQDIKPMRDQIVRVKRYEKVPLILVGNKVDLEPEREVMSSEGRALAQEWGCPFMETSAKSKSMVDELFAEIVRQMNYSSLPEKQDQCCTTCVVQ
UniProt Q92696: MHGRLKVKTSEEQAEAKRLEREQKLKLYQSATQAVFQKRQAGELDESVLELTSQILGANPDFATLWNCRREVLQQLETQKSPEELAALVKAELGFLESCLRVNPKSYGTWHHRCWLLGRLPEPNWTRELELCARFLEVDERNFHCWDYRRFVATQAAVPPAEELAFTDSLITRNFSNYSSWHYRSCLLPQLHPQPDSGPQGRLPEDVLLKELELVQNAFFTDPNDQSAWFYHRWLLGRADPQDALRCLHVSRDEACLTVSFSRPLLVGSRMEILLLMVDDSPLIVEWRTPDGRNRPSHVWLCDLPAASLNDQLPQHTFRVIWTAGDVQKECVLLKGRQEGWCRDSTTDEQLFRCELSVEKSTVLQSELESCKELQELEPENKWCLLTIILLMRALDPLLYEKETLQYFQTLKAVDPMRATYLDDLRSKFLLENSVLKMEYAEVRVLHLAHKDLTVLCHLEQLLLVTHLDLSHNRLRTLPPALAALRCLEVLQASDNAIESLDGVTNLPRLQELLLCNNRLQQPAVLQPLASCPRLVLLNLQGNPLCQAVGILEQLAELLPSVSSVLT
UniProt P49756, whole entry, looked up: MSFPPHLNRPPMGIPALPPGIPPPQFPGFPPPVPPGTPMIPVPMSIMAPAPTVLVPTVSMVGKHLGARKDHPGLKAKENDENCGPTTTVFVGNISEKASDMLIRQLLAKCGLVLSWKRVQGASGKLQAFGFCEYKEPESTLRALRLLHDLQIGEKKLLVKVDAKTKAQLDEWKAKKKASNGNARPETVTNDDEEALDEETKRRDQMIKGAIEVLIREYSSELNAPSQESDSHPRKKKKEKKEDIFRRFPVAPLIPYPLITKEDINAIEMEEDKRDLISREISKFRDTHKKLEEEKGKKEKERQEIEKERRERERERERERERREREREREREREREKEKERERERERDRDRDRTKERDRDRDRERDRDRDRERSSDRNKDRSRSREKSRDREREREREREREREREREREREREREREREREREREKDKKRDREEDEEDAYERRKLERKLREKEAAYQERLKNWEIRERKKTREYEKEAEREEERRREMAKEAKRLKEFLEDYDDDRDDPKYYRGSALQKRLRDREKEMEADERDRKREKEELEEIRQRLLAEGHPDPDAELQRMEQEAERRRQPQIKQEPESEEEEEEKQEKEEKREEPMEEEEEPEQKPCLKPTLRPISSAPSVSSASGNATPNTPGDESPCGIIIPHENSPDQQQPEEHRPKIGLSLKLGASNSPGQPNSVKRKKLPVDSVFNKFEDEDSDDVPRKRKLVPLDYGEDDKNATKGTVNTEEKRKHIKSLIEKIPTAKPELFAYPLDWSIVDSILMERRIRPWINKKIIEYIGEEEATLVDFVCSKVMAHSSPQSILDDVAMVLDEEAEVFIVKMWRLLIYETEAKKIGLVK
UniProt Q9H082: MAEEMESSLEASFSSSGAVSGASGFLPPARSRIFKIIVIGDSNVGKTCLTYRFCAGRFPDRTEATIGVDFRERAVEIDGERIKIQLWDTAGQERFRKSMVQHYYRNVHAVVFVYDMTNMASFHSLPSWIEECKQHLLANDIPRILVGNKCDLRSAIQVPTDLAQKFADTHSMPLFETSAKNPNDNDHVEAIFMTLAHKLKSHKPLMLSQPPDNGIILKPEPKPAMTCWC
UniProt P54136: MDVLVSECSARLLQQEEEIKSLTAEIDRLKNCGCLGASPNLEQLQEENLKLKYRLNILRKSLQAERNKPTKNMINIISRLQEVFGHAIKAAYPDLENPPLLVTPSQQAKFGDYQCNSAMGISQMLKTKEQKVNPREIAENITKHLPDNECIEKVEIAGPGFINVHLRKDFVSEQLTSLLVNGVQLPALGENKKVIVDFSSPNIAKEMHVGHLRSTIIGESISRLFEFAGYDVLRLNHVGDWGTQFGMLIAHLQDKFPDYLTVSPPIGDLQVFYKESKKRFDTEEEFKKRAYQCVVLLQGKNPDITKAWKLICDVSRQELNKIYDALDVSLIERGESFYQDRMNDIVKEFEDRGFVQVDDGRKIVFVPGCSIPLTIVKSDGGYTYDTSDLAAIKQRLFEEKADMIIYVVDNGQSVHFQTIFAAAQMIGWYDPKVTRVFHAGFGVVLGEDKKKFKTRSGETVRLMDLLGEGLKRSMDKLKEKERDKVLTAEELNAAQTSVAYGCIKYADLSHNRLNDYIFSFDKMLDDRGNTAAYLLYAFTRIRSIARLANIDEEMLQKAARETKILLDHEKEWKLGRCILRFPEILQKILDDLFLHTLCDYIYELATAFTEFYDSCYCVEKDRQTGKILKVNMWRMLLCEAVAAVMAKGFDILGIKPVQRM
UniProt Q5T8P6: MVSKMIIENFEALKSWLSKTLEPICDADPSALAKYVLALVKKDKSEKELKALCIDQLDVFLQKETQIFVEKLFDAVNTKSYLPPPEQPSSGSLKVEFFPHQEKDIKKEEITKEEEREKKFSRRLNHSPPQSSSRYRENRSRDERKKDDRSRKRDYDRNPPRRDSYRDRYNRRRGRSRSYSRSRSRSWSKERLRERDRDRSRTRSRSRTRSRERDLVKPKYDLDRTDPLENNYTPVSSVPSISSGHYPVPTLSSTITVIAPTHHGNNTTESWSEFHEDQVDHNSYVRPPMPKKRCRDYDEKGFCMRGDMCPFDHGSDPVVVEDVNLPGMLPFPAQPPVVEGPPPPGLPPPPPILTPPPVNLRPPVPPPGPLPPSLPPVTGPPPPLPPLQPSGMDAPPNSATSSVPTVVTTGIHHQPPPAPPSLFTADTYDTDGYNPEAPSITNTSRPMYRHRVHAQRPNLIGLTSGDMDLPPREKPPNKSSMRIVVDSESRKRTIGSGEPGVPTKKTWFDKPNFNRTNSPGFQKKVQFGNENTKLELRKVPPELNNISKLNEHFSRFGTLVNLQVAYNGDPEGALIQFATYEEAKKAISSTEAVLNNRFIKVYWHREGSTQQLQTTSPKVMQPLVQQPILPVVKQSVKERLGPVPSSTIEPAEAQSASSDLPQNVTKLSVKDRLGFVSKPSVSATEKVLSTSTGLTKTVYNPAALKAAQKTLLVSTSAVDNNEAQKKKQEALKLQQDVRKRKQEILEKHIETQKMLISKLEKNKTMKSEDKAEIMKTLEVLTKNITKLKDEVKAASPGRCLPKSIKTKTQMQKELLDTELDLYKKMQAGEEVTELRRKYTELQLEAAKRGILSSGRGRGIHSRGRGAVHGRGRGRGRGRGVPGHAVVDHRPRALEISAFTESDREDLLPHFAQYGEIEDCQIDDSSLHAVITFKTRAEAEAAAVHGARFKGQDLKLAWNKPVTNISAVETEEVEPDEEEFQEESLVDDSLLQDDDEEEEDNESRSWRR

Compound in one assay: CC1=C(C(CC(=O)N1)C2=CC=C(C=C2)C(F)(F)F)C(=O)NC3=C(C=C4C(=C3)C=NN4)F
Put plainly: log2 fold change, soluble protein after heating vs DMSO (PISA); higher = thermal stabilisation; K562 cells, 10 uM, 30 min; active = over 0.2 and 3.5 SD of the protein, either way, in both replicates (recomputed). In outline:
(§1)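 Soluble protein was defined as the supernatant after 21,000xg for 90 min. It came from K562 cells at 2×10^6 cells/mL given 10 μM compound for 30 min, heated in aliquots for 3 min across 48°C-58°C, pooled, and extracted in PBS with 0.5% NP-40 at 4°C, and was quantified by TMTpro 16plex LC-MS/MS with equalised channel sums. Thermal stability against control samples, from duplicates, is reported as log2 fold change.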
In the case of RAP1B (UniProt F5GZG1), the log2 fold change is inactive: -0.187.
Regarding RBBP7 (UniProt Q16576), the log2 fold change was inactive: -0.001.
For R3HDM4 (UniProt Q96D70), the log2 fold change is inactive: -0.054.
Still for that read-out and setting: under RBBP5 isoform 2 (UniProt Q15291) stands inactive: 0.061; under RAD51B (UniProt O15315), inactive: 0.128; under RACK1 (UniProt D6RHH4), inactive: 0.114.
The same measure, in the same setting: under RAI14 isoform 2 (UniProt Q9P0K7) stands inactive: 0.081; under RAB30 (UniProt Q15771), inactive: -0.03.

Compound in a further assay: CC1=C(C2=C(C=C1)C(=O)C3=CC=CC=C3N2CCCN)C
The assay is described as above. In outline:
as §1
Take RAB3IL1 (UniProt Q8TBN0): the log2 fold change was inactive: 0.037.
On the same count and under the same terms, under RAP2C (UniProt Q9Y3L5) stands inactive: 0.11; under RABGAP1L isoform 3 (UniProt Q5R372), inactive: 0.055; under RABGGTA (UniProt Q92696), inactive: 0.046.
The same measure, in the same setting: under RAD50 isoform 2 (UniProt Q92878) stands inactive: 0.006; under RAP1B (UniProt F5GZG1), inactive: 0.141.
Same read-out and setting: in the case of RBM25 (UniProt P49756) it was inactive: 0.042; in that of R3HDM4 (UniProt Q96D70), inactive: -0.123.
Regarding RBM33 (UniProt Q96EV2), the log2 fold change was active: -0.282.
In the case of RBBP5 isoform 2 (UniProt Q15291), the log2 fold change is inactive: -0.053.
For the target RAB33B (UniProt Q9H082), the log2 fold change was inactive: -0.002.
The same measure, in the same setting: in the case of RARS (UniProt P54136) it was inactive: 0.009; in that of RBM26 isoform 2 (UniProt Q5T8P6), inactive: 0.06.
Take RAD51B (UniProt O15315): the log2 fold change was inactive: 0.059.

Source of the values: the supplement of paper PMC10849652.
